Measurements from patent publication US20260115250A1, “METHODS OF TREATING AGE-RELATED MACULAR DEGENERATION” (Character Biosciences, Inc., priority 2022, published 2026).
Some of these results come from one statement about several compounds together. Not every detail of the peptide structures is certain; ends, links or a residue may be inferred. For part of these data: At least one compound was matched to its structure with a doubt left. Ends that are not written are not given here. Peptide text beside a SMILES is read from it.

Each compound was assayed on ARPE-19 cells (assay: ARPE-19 cholesterol import (BODIPY-Cholesterol)). Details: ARPE-19, 10 μM peptide, 2 hours.
Format: cell-based, human
Procedure: FIG. 12 and FIGS. 14A-14B illustrate the results of ARPE-19 cholesterol import testing. ARPE-19 cells were seeded on 96-well plates at 25,000 cells per well and grown to confluence. A 2× solution of 500 μM DMPC and 50 μM BODIPY-Cholesterol were prepared in serum free DMEM: F12. Peptides were diluted to 20 μM in serum free DMEM: F12 (a 2× solution). Peptides were added to lipid solution in equal parts (60 μL each) and were incubated for 1 hour at 37° C. ARPE-19 cells were serum starved in serum free DMEM: F12 for 1 hour at 37° C. Peptide: Lipid complexes (100 μL total volume per well) were transferred to ARPE-19 cells for 2 hours at 37° C. Cells were washed, fixed, and intracellular fluorescence was read on Promega GloMax at 475 nm excitation, 500-550 emission. Fluorescence values were background corrected from no treatment conditions. Data are presented as mean+SD for two runs.
FIG. 15 illustrates ARPE-19 cholesterol import titration curves for a subset of the peptides. ARPE-19 cells were seeded on 96-well plates at 25,000 cells per well and grown to confluence. A 2× solution of 500 μM DMPC and 50 μM BODIPY-Cholesterol was prepared in serum free DMEM: F12. Peptides were diluted to 0.74-60 μM in serum free DMEM: F12 (2× solutions). Peptides were added to lipid solution in equal parts (60 μL each) to create final peptide concentrations of 0.37-30 µM and incubated for 1 hour at 37° C. ARPE-19 cells were serum starved in serum free DMEM: F12 for 1 hour at 37° C. Peptide: Lipid complexes (100 μL total volume per well) were transferred to ARPE-19 cells for 2 hours at 37° C. Cells were washed, fixed, and intracellular fluorescence was read on Promega GloMax at 475 nm excitation, 500-550 emission. Fluorescence values were background corrected from no treatment conditions. Data are presented as mean+SD for three runs.
ARPE-19 cells were seeded on 96-well plates at 25,000 cells per well and grown to confluence. Peptide: Lipid complexes were created by preparing a solution of serum-free DMEM:F12 containing 30 μM peptide, 750 μM DMPC, and 75 μM BODIPY-Cholesterol. Peptide: Lipid complexes were serially diluted 1:3 for 5 concentrations, and incubated for 1 hour at 37° C. ARPE-19 cells were serum starved in serum free DMEM: F12 for 1 hour at 37° C. Peptide: Lipid complexes (100 μL total volume per well) were transferred to ARPE-19 cells for 2 hours at 37° C. Cells were washed, fixed, and intracellular fluorescence was read on Promega GloMax at 475 nm excitation, 500-550 emission. Fluorescence values were background corrected from no treatment conditions. Data are presented as mean±SD for two runs.

Row | Compound | cholesterol import activity (fluorescence values above baseline)
1 | CC[C@H](C)[C@H](NC(=O)CNC(=O)[C@H](CO)NC(=O)[C@@H](NC(=O)[C@H](Cc1c[nH]c2ccccc12)NC(=O)[C@H](Cc1c[nH]cn1)NC(=O)[C@H](CCC(=O)O)NC(=O)[C@H](Cc1ccccc1)NC(=O)[C@H](CCCNC(=N)N)NC(=O)[C@H](CC(C)C)NC(=O)[C@H](CC(C)C)NC(=O)[C@H](CCCNC(=N)N)NC(=O)[C@H](CCCCN)NC(=O)[C@H](CCCNC(=N)N)NC(=O)[C@H](CC(C)C)NC(=O)[C@H](CCCCN)NC(=O)[C@H](CCCNC(=N)N)NC(=O)[C@H](CC(C)C)NC(=O)[C@@H](N)Cc1c[nH]cn1)[C@@H](C)CC)C(=O)N[C@@H](Cc1ccc(O)cc1)C(=O)N[C@@H](CO)C(=O)N[C@@H](CCC(=O)O)C(=O)N[C@@H](CS)C(=O)N[C@@H](CCCCN)C(=O)N[C@@H](Cc1c[nH]cn1)C(=O)N[C@@H](CC(C)C)C(=O)N[C@H](C(=O)N[C@@H](CCC(N)=O)C(=O)N[C@@H](CCC(=O)O)C(=O)O)[C@@H](C)CC [T-025] (H-HLRKLRKRLLRFEHWISGIYSECKHLIQE-OH; N-terminus and C-terminus assumed) | at least 10 RFU
2 | CC(C)C[C@H](NC(=O)[C@H](CCCNC(=N)N)NC(=O)[C@H](CCCCN)NC(=O)[C@H](CCC(N)=O)NC(=O)[C@H](CC(C)C)NC(=O)[C@H](CC(=O)O)NC(=O)[C@H](CC(=O)O)NC(=O)[C@H](C)NC(=O)[C@H](CC(=O)O)NC(=O)[C@H](CCCNC(=N)N)NC(=O)[C@H](C)NC(=O)[C@H](CC(C)C)NC(=O)[C@H](CCCNC(=N)N)NC(=O)[C@H](CCCCN)NC(=O)[C@H](CCCNC(=N)N)NC(=O)[C@H](CC(C)C)NC(=O)[C@H](CCCCN)NC(=O)[C@H](CCCNC(=N)N)NC(=O)[C@H](CC(C)C)NC(=O)[C@H](Cc1c[nH]cn1)NC(=O)[C@H](CCCNC(=N)N)NC(=O)[C@H](C)NC(=O)[C@@H](N)CC(C)C)C(=O)N[C@@H](C)C(=O)N[C@H](C(=O)N[C@@H](Cc1ccc(O)cc1)C(=O)N[C@@H](CCC(N)=O)C(=O)N[C@@H](C)C(=O)NCC(=O)N[C@@H](C)C(=O)N[C@@H](CCCNC(=N)N)C(=O)N[C@@H](CCC(=O)O)C(=O)NCC(=O)N[C@@H](C)C(=O)N[C@@H](CCC(=O)O)C(=O)N[C@@H](CCCNC(=N)N)C(=O)O)C(C)C [T-047] (H-LARHLRKLRKRLARDADDLQKRLAVYQAGAREGAER-OH) | at least 10 RFU
3 | CC(C)C[C@H](NC(=O)[C@H](Cc1c[nH]cn1)NC(=O)[C@H](CO)NC(=O)[C@H](C)NC(=O)[C@@H](N)CC(C)C)C(=O)N[C@@H](CCCNC(=N)N)C(=O)N[C@@H](CCCCN)C(=O)N[C@@H](CC(C)C)C(=O)N[C@@H](CCCNC(=N)N)C(=O)N[C@@H](CCCCN)C(=O)N[C@@H](CCCNC(=N)N)C(=O)N[C@@H](CC(C)C)C(=O)N[C@@H](CC(C)C)C(=O)N[C@@H](CCCNC(=N)N)C(=O)N[C@@H](CC(=O)O)C(=O)N[C@@H](C)C(=O)N[C@@H](CC(=O)O)C(=O)N[C@@H](CC(=O)O)C(=O)O [T-073] | at least 10 RFU
4 | CC(C)C[C@H](NC(=O)[C@H](CC(=O)O)NC(=O)[C@H](CCCCN)NC(=O)CNC(=O)[C@H](Cc1ccc(O)cc1)NC(=O)[C@H](CC(=O)O)NC(=O)[C@@H](NC(=O)[C@@H](NC(=O)[C@@H](NC(=O)[C@H](CCC(N)=O)NC(=O)[C@H](Cc1ccccc1)NC(=O)[C@H](Cc1ccc(O)cc1)NC(=O)[C@H](CCC(N)=O)NC(=O)[C@H](CO)NC(=O)[C@@H](NC(=O)[C@H](CC(C)C)NC(=O)[C@H](CO)NC(=O)[C@H](CCCNC(=N)N)NC(=O)[C@H](CC(C)C)NC(=O)[C@H](CC(C)C)NC(=O)[C@H](CCCNC(=N)N)NC(=O)[C@H](CCCCN)NC(=O)[C@H](CCCNC(=N)N)NC(=O)[C@H](CC(C)C)NC(=O)[C@H](CCCCN)NC(=O)[C@H](CCCNC(=N)N)NC(=O)[C@H](CC(C)C)NC(=O)[C@@H](N)Cc1c[nH]cn1)C(C)C)[C@@H](C)O)C(C)C)[C@@H](C)O)C(=O)O [T-109] (H-HLRKLRKRLLRSLVSQYFQTVTDYGKDL-OH) | at least 10 RFU
5 | CC(C)C[C@H](NC(=O)[C@H](CC(=O)O)NC(=O)[C@H](CCC(=O)O)NC(=O)CNC(=O)[C@H](Cc1ccc(O)cc1)NC(=O)[C@H](CC(=O)O)NC(=O)[C@@H](NC(=O)[C@@H](NC(=O)[C@@H](NC(=O)[C@H](CCC(N)=O)NC(=O)[C@H](CCCNC(=N)N)NC(=O)[C@H](Cc1ccc(O)cc1)NC(=O)[C@H](CCC(N)=O)NC(=O)[C@H](CO)NC(=O)[C@@H](NC(=O)[C@H](CC(C)C)NC(=O)[C@H](CO)NC(=O)[C@H](CCCNC(=N)N)NC(=O)[C@H](CC(C)C)NC(=O)[C@H](CC(C)C)NC(=O)[C@H](CCCNC(=N)N)NC(=O)[C@H](CCCCN)NC(=O)[C@@H](NC(=O)[C@H](CC(C)C)NC(=O)[C@H](CCCCN)NC(=O)[C@H](CCCNC(=N)N)NC(=O)[C@H](CC(C)C)NC(=O)[C@@H](N)Cc1c[nH]cn1)C(C)C)C(C)C)[C@@H](C)O)C(C)C)[C@@H](C)O)C(=O)O [T-111] (H-HLRKLVKRLLRSLVSQYRQTVTDYGEDL-OH) | at least 10 RFU
6 | DHINKVQRKVTHEIERLFLGQSTEELRVRLASHLRKLRKRLLRDADDLQKRLAVYQA [T-115] | at least 10 RFU
7 | LVARLLKELTAAMARLGRDAEDIRGNLFQYFDEVWAMLGQSTEELRVRLASHLRKLRKRLLRDADDLQKRLAVYQA [T-118, therapeutic peptide] | at least 10 RFU
8 | RSGADALESALKELKRFIREWTLGQSTEELRVRLASHLRKLRKRLLRDADDLQKRLAVYQA [T-117, therapeutic peptide] | at least 10 RFU
9 | T-042: therapeutic peptide (ALRLDRLDLKRKGLALQDRKYEAQARDKEHRRF) | at least 10 RFU
10 | T-067: therapeutic peptide (HYKRLRKRQLMDSVLQYFSTDTLLGVRLK) | at least 10 RFU
11 | VRGRLVQYRGEVQAMLGQSTEELRVRLASHLRKLRKRLLRDADDLQKRLAVYQA [T-069] | at least 10 RFU

Each compound was assayed on HepG2 cells (assay: HepG2 cholesterol import (BODIPY-Cholesterol)). Details: HepG2, 10 μM peptide, 2 hours.
Format: cell-based

Row | Compound | cholesterol import activity (cellular fluorescence values above baseline)
12 | CC[C@H](C)[C@H](NC(=O)CNC(=O)[C@H](CO)NC(=O)[C@@H](NC(=O)[C@H](Cc1c[nH]c2ccccc12)NC(=O)[C@H](Cc1c[nH]cn1)NC(=O)[C@H](CCC(=O)O)NC(=O)[C@H](Cc1ccccc1)NC(=O)[C@H](CCCNC(=N)N)NC(=O)[C@H](CC(C)C)NC(=O)[C@H](CC(C)C)NC(=O)[C@H](CCCNC(=N)N)NC(=O)[C@H](CCCCN)NC(=O)[C@H](CCCNC(=N)N)NC(=O)[C@H](CC(C)C)NC(=O)[C@H](CCCCN)NC(=O)[C@H](CCCNC(=N)N)NC(=O)[C@H](CC(C)C)NC(=O)[C@@H](N)Cc1c[nH]cn1)[C@@H](C)CC)C(=O)N[C@@H](Cc1ccc(O)cc1)C(=O)N[C@@H](CO)C(=O)N[C@@H](CCC(=O)O)C(=O)N[C@@H](CS)C(=O)N[C@@H](CCCCN)C(=O)N[C@@H](Cc1c[nH]cn1)C(=O)N[C@@H](CC(C)C)C(=O)N[C@H](C(=O)N[C@@H](CCC(N)=O)C(=O)N[C@@H](CCC(=O)O)C(=O)O)[C@@H](C)CC [T-025] (H-HLRKLRKRLLRFEHWISGIYSECKHLIQE-OH; N-terminus and C-terminus assumed) | ≥ 20 RFU
13 | CC(C)C[C@H](NC(=O)[C@H](CCCNC(=N)N)NC(=O)[C@H](CCCCN)NC(=O)[C@H](CCC(N)=O)NC(=O)[C@H](CC(C)C)NC(=O)[C@H](CC(=O)O)NC(=O)[C@H](CC(=O)O)NC(=O)[C@H](C)NC(=O)[C@H](CC(=O)O)NC(=O)[C@H](CCCNC(=N)N)NC(=O)[C@H](CC(C)C)NC(=O)[C@H](CC(C)C)NC(=O)[C@H](CCCNC(=N)N)NC(=O)[C@H](CCCCN)NC(=O)[C@H](CCCNC(=N)N)NC(=O)[C@H](CC(C)C)NC(=O)[C@H](CCCCN)NC(=O)[C@H](CCCNC(=N)N)NC(=O)[C@H](CC(C)C)NC(=O)[C@H](Cc1c[nH]cn1)NC(=O)[C@H](CO)NC(=O)[C@H](C)NC(=O)[C@@H](N)CC(C)C)C(=O)N[C@@H](C)C(=O)N[C@H](C(=O)N[C@@H](Cc1ccc(O)cc1)C(=O)N[C@@H](CCC(N)=O)C(=O)N[C@@H](C)C(=O)O)C(C)C [T-044] | ≥ 20 RFU
14 | HLRKLRKRLLRDGDKLSDRLAEYVARAKEAFDR [T-080, therapeutic peptide] | ≥ 20 RFU
15 | T-007: therapeutic peptide (EELRVRLASHLRKLRKRLLRDADDLQKRLAVYQA) | ≥ 20 RFU
16 | T-009: therapeutic peptide (EELRVRLASHLRKLRKRLLRDADDLQKRLAVYQAGAREGAERGLSAIRER) | ≥ 20 RFU
17 | T-024: therapeutic peptide (FEHWISGIYSECKHLIQE) | ≥ 20 RFU
18 | T-029: therapeutic peptide (HLRKLRKRLLRDGDKLCDRLAEYCARAKEAFDR) | ≥ 20 RFU
